{
  "source": "the supplement of paper PMC10077471",
  "note": "Over roughly 1,900 compounds, “excess over highest single agent (ExcessHSA) synergy score, 6x6 matrix” has its median near -83; the lowest 2% begin near -370. The list shows a part of the results.",
  "data": [
    {"tested_on": "NCI-H446", "test": "excess over highest single agent (ExcessHSA) synergy score, 6x6 matrix; higher = less synergy (more negative = stronger synergy)", "settings": "72 h; CellTiter-Glo viability", "values": [
      {"smiles": "COC(=O)/C=C/C(=O)OC", "note": "+ Cc1sc2c(c1C)C(c1ccc(Cl)cc1)=N[C@@H](CC(=O)OC(C)(C)C)c1nnc(C)n1-2 [NCGC00250412-19]", "excess over highest single agent": -117},
      {"smiles": "COc1ccc(-c2oc3cc(OC)ccc3c2C(=O)c2ccc(C#N)cc2)cc1", "note": "+ Cc1sc2c(c1C)C(c1ccc(Cl)cc1)=N[C@@H](CC(=O)OC(C)(C)C)c1nnc(C)n1-2 [NCGC00250412-19]", "excess over highest single agent": -37.5},
      {"smiles": "CNc1nc(Nc2ccc(C(=O)N3CCOCC3)cc2OC)ncc1Cl", "note": "+ Cc1sc2c(c1C)C(c1ccc(Cl)cc1)=N[C@@H](CC(=O)OC(C)(C)C)c1nnc(C)n1-2 [NCGC00250412-19]", "excess over highest single agent": 436},
      {"smiles": "CC(C)c1cc(C(C)C)c(CC(=O)NS(=O)(=O)Oc2c(C(C)C)cccc2C(C)C)c(C(C)C)c1", "note": "+ Cc1sc2c(c1C)C(c1ccc(Cl)cc1)=N[C@@H](CC(=O)OC(C)(C)C)c1nnc(C)n1-2 [NCGC00250412-19]", "excess over highest single agent": -149},
      {"smiles": "CC(=O)O[C@H]1C[C@@H]2CC[C@@H]3[C@H](CC[C@@]4(C)[C@H]3C[C@H]([N+]3(C)CCCCC3)[C@@H]4OC(C)=O)[C@@]2(C)C[C@@H]1[N+]1(C)CCCCC1", "note": "+ Cc1sc2c(c1C)C(c1ccc(Cl)cc1)=N[C@@H](CC(=O)OC(C)(C)C)c1nnc(C)n1-2 [NCGC00250412-19]", "excess over highest single agent": 50.1},
      {"smiles": "O=C1c2c(O)ccc(O)c2C(=O)c2c(NCCNCCO)ccc(NCCNCCO)c21", "note": "+ Cc1sc2c(c1C)C(c1ccc(Cl)cc1)=N[C@@H](CC(=O)OC(C)(C)C)c1nnc(C)n1-2 [NCGC00250412-19]", "excess over highest single agent": -211},
      {"smiles": "N[C@@H](Cc1ccc(O)c(O)c1)C(=O)O", "note": "+ Cc1sc2c(c1C)C(c1ccc(Cl)cc1)=N[C@@H](CC(=O)OC(C)(C)C)c1nnc(C)n1-2 [NCGC00250412-19]", "excess over highest single agent": 57.6},
      {"smiles": "CCCCCCCCOc1ccccc1C(=O)Nc1ccc(C(=O)OCC[N+](C)(CC)CC)cc1", "note": "+ Cc1sc2c(c1C)C(c1ccc(Cl)cc1)=N[C@@H](CC(=O)OC(C)(C)C)c1nnc(C)n1-2 [NCGC00250412-19]", "excess over highest single agent": -51.4},
      {"smiles": "CN1CCCN(C(=O)c2cccc(-c3ccc(/C=C4/C(=O)Nc5ccc(Cl)cc54)o3)c2)CC1", "note": "+ Cc1sc2c(c1C)C(c1ccc(Cl)cc1)=N[C@@H](CC(=O)OC(C)(C)C)c1nnc(C)n1-2 [NCGC00250412-19]", "excess over highest single agent": -186},
      {"smiles": "CN1CCN2c3ccccc3Cc3ccccc3C2C1", "note": "(configuration not stated) + Cc1sc2c(c1C)C(c1ccc(Cl)cc1)=N[C@@H](CC(=O)OC(C)(C)C)c1nnc(C)n1-2 [NCGC00250412-19]", "excess over highest single agent": -69.7},
      {"smiles": "CN(c1ncccc1CNc1nc(Nc2ccc3c(c2)CC(=O)N3)ncc1C(F)(F)F)S(C)(=O)=O", "note": "+ Cc1sc2c(c1C)C(c1ccc(Cl)cc1)=N[C@@H](CC(=O)OC(C)(C)C)c1nnc(C)n1-2 [NCGC00250412-19]", "excess over highest single agent": -151},
      {"smiles": "CN(C)CCc1c[nH]c2ccc(CS(=O)(=O)N3CCCC3)cc12", "note": "+ Cc1sc2c(c1C)C(c1ccc(Cl)cc1)=N[C@@H](CC(=O)OC(C)(C)C)c1nnc(C)n1-2 [NCGC00250412-19]", "excess over highest single agent": -94.8},
      {"smiles": "CCc1ccc(OCc2ccccc2C(=O)Nc2ccc3nc(C)cc(N)c3c2)cc1", "note": "+ Cc1sc2c(c1C)C(c1ccc(Cl)cc1)=N[C@@H](CC(=O)OC(C)(C)C)c1nnc(C)n1-2 [NCGC00250412-19]", "excess over highest single agent": -143},
      {"smiles": "O=C1C=CC[C@@H]2[C@H]3CCCN4CCC[C@@H](CN12)[C@@H]34", "note": "+ Cc1sc2c(c1C)C(c1ccc(Cl)cc1)=N[C@@H](CC(=O)OC(C)(C)C)c1nnc(C)n1-2 [NCGC00250412-19]", "excess over highest single agent": -63.1},
      {"smiles": "Cc1cnc(NC(=O)Nc2cc(Br)c(C)cc2OC[C@@H]2CNCCO2)cn1", "note": "+ Cc1sc2c(c1C)C(c1ccc(Cl)cc1)=N[C@@H](CC(=O)OC(C)(C)C)c1nnc(C)n1-2 [NCGC00250412-19]", "excess over highest single agent": 49.6},
      {"smiles": "CSCC[C@H](NC(=O)[C@H](Cc1c[nH]c2ccccc12)NC(=O)CCNC(=O)OC(C)(C)C)C(=O)N[C@@H](CC(=O)O)C(=O)N[C@@H](Cc1ccccc1)C(N)=O", "note": "+ Cc1sc2c(c1C)C(c1ccc(Cl)cc1)=N[C@@H](CC(=O)OC(C)(C)C)c1nnc(C)n1-2 [NCGC00250412-19]", "excess over highest single agent": 9.4},
      {"smiles": "Nc1cc(C(F)(F)F)c(-c2cc(N3CCOCC3)nc(N3CCOCC3)n2)cn1", "note": "+ Cc1sc2c(c1C)C(c1ccc(Cl)cc1)=N[C@@H](CC(=O)OC(C)(C)C)c1nnc(C)n1-2 [NCGC00250412-19]", "excess over highest single agent": -104},
      {"smiles": "Cc1c(C(=O)Nc2ccc(N3C[C@@H](C)O[C@@H](C)C3)nc2)cccc1-c1ccc(OC(F)(F)F)cc1", "note": "+ Cc1sc2c(c1C)C(c1ccc(Cl)cc1)=N[C@@H](CC(=O)OC(C)(C)C)c1nnc(C)n1-2 [NCGC00250412-19]", "excess over highest single agent": -53.8},
      {"smiles": "O=c1cc(N2CCOCC2)oc2c(-c3ccccc3)cccc12", "note": "+ Cc1sc2c(c1C)C(c1ccc(Cl)cc1)=N[C@@H](CC(=O)OC(C)(C)C)c1nnc(C)n1-2 [NCGC00250412-19]", "excess over highest single agent": 83.7},
      {"smiles": "COC(=O)[C@@H](N)CCCNC(=N)N[N+](=O)[O-]", "note": "+ Cc1sc2c(c1C)C(c1ccc(Cl)cc1)=N[C@@H](CC(=O)OC(C)(C)C)c1nnc(C)n1-2 [NCGC00250412-19]", "excess over highest single agent": 16.4},
      {"smiles": "CCc1ccc(/C=C2/SC(=S)NC2=O)cc1", "note": "+ Cc1sc2c(c1C)C(c1ccc(Cl)cc1)=N[C@@H](CC(=O)OC(C)(C)C)c1nnc(C)n1-2 [NCGC00250412-19]", "excess over highest single agent": -178},
      {"smiles": "Cc1ccc(Nc2nccc(N(C)c3ccc4c(C)n(C)nc4c3)n2)cc1S(N)(=O)=O", "note": "+ Cc1sc2c(c1C)C(c1ccc(Cl)cc1)=N[C@@H](CC(=O)OC(C)(C)C)c1nnc(C)n1-2 [NCGC00250412-19]", "excess over highest single agent": 102},
      {"smiles": "COc1cc(Nc2ncc3c(n2)-c2ccc(Cl)cc2C(c2c(F)cccc2OC)=NC3)ccc1C(=O)O", "note": "+ Cc1sc2c(c1C)C(c1ccc(Cl)cc1)=N[C@@H](CC(=O)OC(C)(C)C)c1nnc(C)n1-2 [NCGC00250412-19]", "excess over highest single agent": -246},
      {"smiles": "COc1cc2cc(c1Cl)N(C)C(=O)C[C@H](OC(=O)C(C)C)[C@]1(C)O[C@@H]1[C@H](C)[C@@H]1C[C@@](O)(NC(=O)O1)[C@H](OC)/C=C/C=C(\\C)C2", "note": "+ Cc1sc2c(c1C)C(c1ccc(Cl)cc1)=N[C@@H](CC(=O)OC(C)(C)C)c1nnc(C)n1-2 [NCGC00250412-19]", "excess over highest single agent": -31.3},
      {"smiles": "O=C(NCC1CCOCC1)c1cnc(Nc2ccc(Cl)cc2Cl)nc1C(F)(F)F", "note": "+ Cc1sc2c(c1C)C(c1ccc(Cl)cc1)=N[C@@H](CC(=O)OC(C)(C)C)c1nnc(C)n1-2 [NCGC00250412-19]", "excess over highest single agent": -98.5},
      {"smiles": "CC(C)(C)c1cc(C(C)(C)C)c(NC(=O)c2c[nH]c3ccccc3c2=O)cc1O", "note": "+ Cc1sc2c(c1C)C(c1ccc(Cl)cc1)=N[C@@H](CC(=O)OC(C)(C)C)c1nnc(C)n1-2 [NCGC00250412-19]", "excess over highest single agent": -82.6},
      {"smiles": "Cc1ccc([C@@H]2O[C@H](CO)[C@@H](O)[C@H](O)[C@H]2O)cc1Cc1ccc(-c2ccc(F)cc2)s1", "note": "+ Cc1sc2c(c1C)C(c1ccc(Cl)cc1)=N[C@@H](CC(=O)OC(C)(C)C)c1nnc(C)n1-2 [NCGC00250412-19]", "excess over highest single agent": -45.9},
      {"smiles": "Cn1c(CCCC(=O)O)nc2cc(N(CCCl)CCCl)ccc21", "note": "+ Cc1sc2c(c1C)C(c1ccc(Cl)cc1)=N[C@@H](CC(=O)OC(C)(C)C)c1nnc(C)n1-2 [NCGC00250412-19]", "excess over highest single agent": 14.8},
      {"smiles": "CC(C)NC[C@@H](C(=O)N1CCN(c2ncnc3c2[C@H](C)C[C@H]3O)CC1)c1ccc(Cl)cc1", "note": "+ Cc1sc2c(c1C)C(c1ccc(Cl)cc1)=N[C@@H](CC(=O)OC(C)(C)C)c1nnc(C)n1-2 [NCGC00250412-19]", "excess over highest single agent": -170},
      {"smiles": "COC(=O)Nc1nc2cc(Sc3ccccc3)ccc2[nH]1", "note": "+ Cc1sc2c(c1C)C(c1ccc(Cl)cc1)=N[C@@H](CC(=O)OC(C)(C)C)c1nnc(C)n1-2 [NCGC00250412-19]", "excess over highest single agent": -104},
      {"smiles": "Cc1cc(/C=c2/sc3nc4ccccc4n3c2=O)c(C)n1-c1ccccc1", "note": "+ Cc1sc2c(c1C)C(c1ccc(Cl)cc1)=N[C@@H](CC(=O)OC(C)(C)C)c1nnc(C)n1-2 [NCGC00250412-19]", "excess over highest single agent": -149},
      {"smiles": "COCC(=O)NC/C=C/c1ccc2ncnc(Nc3ccc(Oc4ccc(C)nc4)c(C)c3)c2c1", "note": "+ Cc1sc2c(c1C)C(c1ccc(Cl)cc1)=N[C@@H](CC(=O)OC(C)(C)C)c1nnc(C)n1-2 [NCGC00250412-19]", "excess over highest single agent": 111},
      {"smiles": "O=C(O)CC/C=C\\CC[C@@H]1[C@@H](N2CCCCC2)[C@@H](O)C[C@@H]1OCc1ccc(-c2ccccc2)cc1", "note": "+ Cc1sc2c(c1C)C(c1ccc(Cl)cc1)=N[C@@H](CC(=O)OC(C)(C)C)c1nnc(C)n1-2 [NCGC00250412-19]", "excess over highest single agent": -238},
      {"smiles": "C=CC(=O)Nc1cccc(Sc2nc(Nc3ccc(N4CCN(C)CC4)cc3)ncc2Cl)c1", "note": "+ Cc1sc2c(c1C)C(c1ccc(Cl)cc1)=N[C@@H](CC(=O)OC(C)(C)C)c1nnc(C)n1-2 [NCGC00250412-19]", "excess over highest single agent": -194},
      {"smiles": "CCOC(=O)[C@H]1O[C@@H]1C(=O)N[C@@H](CC(C)C)C(=O)NCCC(C)C", "note": "+ Cc1sc2c(c1C)C(c1ccc(Cl)cc1)=N[C@@H](CC(=O)OC(C)(C)C)c1nnc(C)n1-2 [NCGC00250412-19]", "excess over highest single agent": -33.8},
      {"smiles": "COc1cc(Nc2c(C#N)cnc3cc(OCCCN4CCN(C)CC4)c(OC)cc23)c(Cl)cc1Cl", "note": "+ Cc1sc2c(c1C)C(c1ccc(Cl)cc1)=N[C@@H](CC(=O)OC(C)(C)C)c1nnc(C)n1-2 [NCGC00250412-19]", "excess over highest single agent": 100},
      {"smiles": "CC(=O)OC[C@H]1O[C@@H]([S-])[C@H](OC(C)=O)[C@@H](OC(C)=O)[C@@H]1OC(C)=O.CCP(CC)CC.[Au+]", "note": "+ Cc1sc2c(c1C)C(c1ccc(Cl)cc1)=N[C@@H](CC(=O)OC(C)(C)C)c1nnc(C)n1-2 [NCGC00250412-19]", "excess over highest single agent": -83.2}
    ]}
  ]
}
